Source: patent US12097202B2 (Kadmon Corporation, LLC, priority 2022, dated 2024)
At least one structure is not confirmed: it was looked up by name or label, or the drawing left a doubt.

Tests used:
[1] = system: animal models of chronic GVHD; assay: animal models of chronic GVHD; conditions: in vivo
[2] = system: patients with chronic GVHD; assay: Example 2: phase II randomized study of belumosudil (KD025-213) in cGVHD, efficacy and safety; conditions: Total, N=132, mITT;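 further: allogeneic HCT recipients aged ≥12 years with persistent cGVHD after two to five earlier systemic treatment lines, responses judged by site investigators, 12-month analysis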

CC(C)NC(=O)COc1cccc(-c2nc(Nc3ccc4[nH]ncc4c3)c3ccccc3n2)c1 [belumosudil, 2-{3-[4-(1H-indazol-5-ylamino)-2-quinazolinyl]phenoxy}-N-(propan-2-yl) acetamide]
activity in animal models of chronic GVHD [1]: demonstrated activity
CS discontinuation [2]: Twenty-one
